The assay addresses pUL21-GFP (wild-type) (HSV-1) (UniProt P10205). Briefly: co-IP.

By UniProt entry, the sequences of proteins in these tests, tags left out. Where a name states a change or a piece, a line headed by the entry shows the natural chain unless it says otherwise.
UniProt P10205, whole entry, stated change not applied: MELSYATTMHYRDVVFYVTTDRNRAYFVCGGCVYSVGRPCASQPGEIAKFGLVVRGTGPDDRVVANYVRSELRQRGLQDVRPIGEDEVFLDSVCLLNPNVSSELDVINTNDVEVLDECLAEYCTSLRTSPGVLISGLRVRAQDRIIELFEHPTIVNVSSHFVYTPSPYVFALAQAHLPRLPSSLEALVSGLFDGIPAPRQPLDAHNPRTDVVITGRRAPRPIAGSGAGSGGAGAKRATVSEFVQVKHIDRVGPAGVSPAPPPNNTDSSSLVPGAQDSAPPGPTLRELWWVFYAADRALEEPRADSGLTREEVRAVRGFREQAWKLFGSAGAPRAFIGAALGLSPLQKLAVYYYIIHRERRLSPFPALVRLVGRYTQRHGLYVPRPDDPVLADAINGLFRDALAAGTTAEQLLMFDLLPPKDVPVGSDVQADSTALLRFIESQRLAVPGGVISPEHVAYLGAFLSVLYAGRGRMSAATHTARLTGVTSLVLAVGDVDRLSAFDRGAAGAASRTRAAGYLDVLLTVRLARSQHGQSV

No constants are given. Whether binding was seen depends on the method and setting. Binding seen in cells or lysates may run through a third protein. A result given as binding can be weak or reduced; the word gives no strength.

For 1 substance, binding results are on record in paper doi:10.1101/2022.06.01.494398.

Turning to “CERT (endogenous, HEK293T) (from UniProt Q9Y5P4)”, the binding entry is “binds”.
